From article PMC8417031 come the findings set out here.

Sequences of proteins named here, by UniProt entry; tags and fusion partners are left off.
UniProt Q86W92: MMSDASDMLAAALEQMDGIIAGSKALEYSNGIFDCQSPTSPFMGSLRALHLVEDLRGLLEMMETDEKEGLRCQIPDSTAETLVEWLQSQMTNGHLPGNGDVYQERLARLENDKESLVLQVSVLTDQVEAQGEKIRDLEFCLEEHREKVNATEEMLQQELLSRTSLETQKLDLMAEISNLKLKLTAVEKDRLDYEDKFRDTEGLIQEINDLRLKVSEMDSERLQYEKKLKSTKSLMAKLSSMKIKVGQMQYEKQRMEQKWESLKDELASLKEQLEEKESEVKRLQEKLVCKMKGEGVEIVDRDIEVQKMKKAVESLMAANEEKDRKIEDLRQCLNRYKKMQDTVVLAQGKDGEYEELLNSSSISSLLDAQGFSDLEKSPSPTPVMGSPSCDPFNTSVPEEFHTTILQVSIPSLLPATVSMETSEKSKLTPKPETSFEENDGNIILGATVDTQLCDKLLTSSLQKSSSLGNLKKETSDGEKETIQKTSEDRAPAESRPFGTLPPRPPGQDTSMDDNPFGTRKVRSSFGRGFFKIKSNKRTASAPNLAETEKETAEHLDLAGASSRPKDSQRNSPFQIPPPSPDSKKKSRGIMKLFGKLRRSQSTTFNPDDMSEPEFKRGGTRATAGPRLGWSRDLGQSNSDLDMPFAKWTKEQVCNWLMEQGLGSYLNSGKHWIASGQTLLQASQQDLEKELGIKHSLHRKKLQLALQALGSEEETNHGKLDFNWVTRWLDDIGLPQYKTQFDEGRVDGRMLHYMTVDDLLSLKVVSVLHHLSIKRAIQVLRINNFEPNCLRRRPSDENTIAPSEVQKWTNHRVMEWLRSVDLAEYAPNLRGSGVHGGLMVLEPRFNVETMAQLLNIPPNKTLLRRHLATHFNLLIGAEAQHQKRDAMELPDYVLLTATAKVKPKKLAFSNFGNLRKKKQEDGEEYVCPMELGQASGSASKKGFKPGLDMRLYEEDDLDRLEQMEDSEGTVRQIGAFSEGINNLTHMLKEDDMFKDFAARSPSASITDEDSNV

These are yes or no findings as the source states them, for the method shown. Binding seen in cells or lysates may run through a third protein. These calls come from enrichment with a bait or labelling near it, and not all partners need be listed.

The assay has as its target PPFIA binding protein 1 (PPFIBP1) (human (endogenous in U251 MG)) (UniProt Q86W92). The assay can be described thus: affinity purification with mass spectrometry; Co-IP from U251 MG cell lysate with an anti-PPFIBP1 antibody, non-specific IgG as negative control; the methods name FLAG M2 beads and elution with 200 μg/ml 3×FLAG-peptide in PBS; SDS-PAGE, silver staining, in-gel trypsin digest, LC-MS/MS.

B1: SRCIN1 (p140Cap) (protein, UniProt Q9C0H9 1-1183)
chain: MGNAPSQDPERSSPPMLSADDAEYPREYRTLGGGGGGGSGGRRFSNVGLVHTSERRHTVIAAQSLEALSGLQKADADRKRDAFMDHLKSKYPQHALALRGQQDRMREQPNYWSFKTRSSRHTQGAQPGLADQAAKLSYASAESLETMSEAELPLGFSRMNRFRQSLPLSRSASQTKLRSPGVLFLQFGEETRRVHITHEVSSLDTLHALIAHMFPQKLTMGMLKSPNTAILIKDEARNVFYELEDVRDIQDRSIIKIYRKEPLYAAFPGSHLTNGDLRREMVYASRESSPTRRLNNLSPAPHLASGSPPPGLPSGLPSGLQSGSPSRSRLSYAGGRPPSYAGSPVHHAAERLGGAPAAQGVSPSPSAILERRDVKPDEDLASKAGGMVLVKGEGLYADPYGLLHEGRLSLAAAAGDPFAYPGAGGLYKRGSVRSLSTYSAAALQSDLEDSLYKAAGGGGPLYGDGYGFRLPPSSPQKLADVAAPPGGPPPPHSPYSGPPSRGSPVRQSFRKDSGSSSVFAESPGGKTRSAGSASTAGAPPSELFPGPGERSLVGFGPPVPAKDTETRERMEAMEKQIASLTGLVQSALLRGSEPETPSEKIEGSNGAATPSAPCGSGGRSSGATPVSGPPPPSASSTPAGQPTAVSRLQMQLHLRGLQNSASDLRGQLQQLRKLQLQNQESVRALLKRTEAELSMRVSEAARRQEDPLQRQRTLVEEERLRYLNDEELITQQLNDLEKSVEKIQRDVSHNHRLVPGPELEEKALVLKQLGETLTELKAHFPGLQSKMRVVLRVEVEAVKFLKEEPQRLDGLLKRCRGVTDTLAQIRRQVDEGVWPPPNNLLSQSPKKVTAETDFNKSVDFEMPPPSPPLNLHELSGPAEGASLTPKGGNPTKGLDTPGKRSVDKAVSVEAAERDWEEKRAALTQYSAKDINRLLEETQAELLKAIPDLDCASKAHPGPAPTPDHKPPKAPHGQKAAPRTEPSGRRGSDELTVPRYRTEKPSKSPPPPPPRRSFPSSHGLTTTRTGEVVVTSKKDSAFIKKAESEELEVQKPQVKLRRAVSEVARPASTPPIMASAIKDEDDEDRIIAELESGGGSVPPMKVVTPGASRLKAAQGQAGSPDKSKHGKQRAEYMRIQAQQQATKPSKEMSGSNETSSPVSEKPSASRTSIPVLTSFGARNSSISF
In the case of B1, the binding entry is reported as “binds”.
